This passage reports binding results from PMC5385568.

Chains of the proteins cited; added tags and fusions are not shown. Lines headed by an entry give the natural chain unless they say otherwise; changes in a name come on top.
UniProt P28023: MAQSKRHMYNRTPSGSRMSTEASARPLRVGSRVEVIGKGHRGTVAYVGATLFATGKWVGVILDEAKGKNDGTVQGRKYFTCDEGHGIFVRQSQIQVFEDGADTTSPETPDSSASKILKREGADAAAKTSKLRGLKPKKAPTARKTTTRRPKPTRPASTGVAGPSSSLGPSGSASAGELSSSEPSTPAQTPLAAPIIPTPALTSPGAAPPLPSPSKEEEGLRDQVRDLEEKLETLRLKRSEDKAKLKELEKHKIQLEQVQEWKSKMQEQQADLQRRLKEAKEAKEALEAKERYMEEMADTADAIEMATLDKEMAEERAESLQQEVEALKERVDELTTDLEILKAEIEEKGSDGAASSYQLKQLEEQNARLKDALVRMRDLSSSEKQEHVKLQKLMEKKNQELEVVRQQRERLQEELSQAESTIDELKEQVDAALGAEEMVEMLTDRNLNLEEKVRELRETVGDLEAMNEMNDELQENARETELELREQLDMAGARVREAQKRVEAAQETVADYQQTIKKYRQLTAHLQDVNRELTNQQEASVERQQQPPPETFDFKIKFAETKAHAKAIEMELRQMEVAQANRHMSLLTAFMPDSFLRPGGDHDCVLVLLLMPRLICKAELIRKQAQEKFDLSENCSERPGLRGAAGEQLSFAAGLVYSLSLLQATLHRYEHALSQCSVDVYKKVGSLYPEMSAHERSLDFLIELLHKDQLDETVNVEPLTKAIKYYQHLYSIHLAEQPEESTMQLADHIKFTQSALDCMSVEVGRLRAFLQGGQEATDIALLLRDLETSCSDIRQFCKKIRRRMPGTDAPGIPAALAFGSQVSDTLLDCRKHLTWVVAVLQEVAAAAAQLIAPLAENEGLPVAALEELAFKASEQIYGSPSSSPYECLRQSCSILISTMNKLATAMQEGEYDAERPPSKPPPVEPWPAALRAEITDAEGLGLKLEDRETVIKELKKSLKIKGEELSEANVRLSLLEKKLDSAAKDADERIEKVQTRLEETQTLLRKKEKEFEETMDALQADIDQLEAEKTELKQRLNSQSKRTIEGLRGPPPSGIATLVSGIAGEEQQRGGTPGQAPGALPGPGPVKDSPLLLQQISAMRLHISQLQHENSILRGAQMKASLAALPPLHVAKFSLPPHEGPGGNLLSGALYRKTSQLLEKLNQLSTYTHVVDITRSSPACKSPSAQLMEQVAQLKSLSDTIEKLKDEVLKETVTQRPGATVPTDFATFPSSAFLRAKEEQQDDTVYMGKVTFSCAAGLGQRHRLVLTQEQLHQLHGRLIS
UniProt P63010: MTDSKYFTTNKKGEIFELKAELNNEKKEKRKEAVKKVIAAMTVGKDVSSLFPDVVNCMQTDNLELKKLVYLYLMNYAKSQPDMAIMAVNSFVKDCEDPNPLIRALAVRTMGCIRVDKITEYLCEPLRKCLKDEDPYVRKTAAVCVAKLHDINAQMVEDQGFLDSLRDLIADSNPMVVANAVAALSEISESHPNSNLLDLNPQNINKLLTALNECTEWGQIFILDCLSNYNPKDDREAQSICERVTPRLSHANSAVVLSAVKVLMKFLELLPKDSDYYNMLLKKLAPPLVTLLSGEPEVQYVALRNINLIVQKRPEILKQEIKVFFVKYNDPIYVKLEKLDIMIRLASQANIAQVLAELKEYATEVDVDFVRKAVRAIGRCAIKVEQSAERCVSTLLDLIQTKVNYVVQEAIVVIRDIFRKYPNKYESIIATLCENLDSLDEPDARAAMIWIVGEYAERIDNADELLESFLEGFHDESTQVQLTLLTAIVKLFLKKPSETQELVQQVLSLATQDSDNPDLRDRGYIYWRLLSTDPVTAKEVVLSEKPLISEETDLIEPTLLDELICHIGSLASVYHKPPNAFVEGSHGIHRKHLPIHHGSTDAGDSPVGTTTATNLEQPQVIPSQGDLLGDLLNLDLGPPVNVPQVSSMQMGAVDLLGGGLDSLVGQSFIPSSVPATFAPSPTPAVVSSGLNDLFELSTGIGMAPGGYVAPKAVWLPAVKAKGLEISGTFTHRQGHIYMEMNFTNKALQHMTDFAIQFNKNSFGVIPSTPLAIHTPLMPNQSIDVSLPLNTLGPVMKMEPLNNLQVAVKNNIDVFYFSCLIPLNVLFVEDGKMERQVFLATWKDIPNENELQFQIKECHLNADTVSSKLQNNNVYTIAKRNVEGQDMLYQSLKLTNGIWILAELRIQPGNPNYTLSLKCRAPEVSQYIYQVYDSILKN

No constants are given. Whether binding was seen depends on the method and setting. In cells and extracts the contact can be indirect. Binding calls can cover weak binding; strength is not graded here.

In the test the target is AviGFP-tagged p150^Glued (rat) (UniProt P28023). Nature of the test: pull-down; biotinylated AviGFP-p150^Glued from HEK293T lysate held on M-280 streptavidin Dynabeads, washed with 500 mM KCl, then incubated with 0.2 mg/ml His6-AP-2β appendage domain in 20 mM HEPES pH 7.5, 300 mM KCl, 0.1% CHAPS, 2 h at 4 °C; immunoblotting; both purified.

In the case of “recombinant His6-AP-2β appendage domain (from UniProt P63010) (domain or fragment)”, the binding entry was “binds”.
